Values of other authors as cited in US8361743B2, “Biological production of zeaxanthin and carotenoid biosynthesis control” (Aquapharm Bio-Discovery Ltd., priority 2005, dated 2013).
The name of at least one read-out is uncertain.

Conditions: compared with marigold extract; Gierhart et al. 1992; cited from earlier work

SMILES: CC1=C(/C=C/C(C)=C/C=C/C(C)=C/C=C/C=C(C)/C=C/C=C(C)/C=C/C2=C(C)CC(O)CC2(C)C)C(C)(C)CC(O)C1 (stereo not drawn) [β,β-Carotene-3,3′-diol]
- bioavailability relative to zeaxanthin extracted from marigold: 2-3 times
